# Laboratory results as given in the supplement of paper PMC8728848.
# The other results are listed elsewhere or left out.
# B1: CcfD (Bacteroides vulgatus), A6KYX8 (protein)
# chain: MKYKNYFKSIIYLALGAFTLGSCEDFLDRQEDEKLTFDKIWESRNTTQQYWLNAMSFLPNENGSLQGDTEPYLGASDECTIAYDRQYRWINFGTWNPSQVPYYKMDHYYKGIRECNIFLQNVYKCSDPLVTKDQLDEWYWQTRFARAYYYFLMMRDYGPVFLLGDDLLDFTASTEELYRPRNTWDQCVNYVVSEMTQCAESGVVLQQSDLPAAKWGLATVGTCHAVISRLLLYSARPLFNGNKLYSTVKNPDAPDFPELSGVKLFPELDNTKWQKAAEAAKKLIDNPCYELYRAGNDNPYEDYYGVTHETWNKELIWTDRYNGLFSWGVGTVPTGVAGTAYGAVGPTQALVDAYAMNTGWYPITGYEADGTPIVEPLSGYELASELEKSSWIYPSGGWSNKADFEIEAPNMYKDREPRFYVTVFFGGNQWLHGNSATSISFAKGGNGNKSHDYPKSGYLCNRFYDHKLNSSEGQWGNITFPVFRLGEIYLNFIEAVLECKKNGVALDPSYEALAMEKWADLRKRAGLDPITSIYGQVSTEELIQLCRKERQIELAFERHRYFDTRTWMIATQTDNGKMYGMNTSCPLDAGMKGTETPDGFWERTAFETRVFQNKHYLYPFSQRELDRNKLLTQNYGW
# What was measured:
# Assay in all cases: glycan array binding signal (z-score within array); higher = stronger binding
# Conditions in all cases: glycan notation: IUPAC condensed, linker removed
# [1] = target: Man(a1-2)Man(a1-3)[Man(a1-2)Man(a1-6)]Man
# Method in brief: (§1)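 Glycan array data came from 3228 arrays in the Consortium for Functional Glycomics database, and only arrays with an available protein sequence were kept. Glycan names were put into IUPAC-condensed notation, and columns mapping to the same glycan were averaged. The binding signal is a within-array Z-score, averaged across arrays of one protein sequence run at different concentrations or buffers and across linkers. A negative Z-score can be read as non-binding.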
# [2] = target: Man(a1-2)Man(a1-3)[Man(a1-2)Man(a1-6)]Man(a1-6)[Man(a1-2)Man(a1-2)Man(a1-3)]Man
# Method in brief: as §1
# [3] = target: Man(a1-2)Man(a1-3)[Man(a1-2)Man(a1-6)]Man(a1-6)[Man(a1-2)Man(a1-2)Man(a1-3)]Man(b1-4)GlcNAc(b1-4)GlcNAc
# Method in brief: as §1
# [4] = target: Man(a1-2)Man(a1-3)[Man(a1-6)]Man(a1-6)[Man(a1-2)Man(a1-3)]Man(b1-4)GlcNAc(b1-4)GlcNAc
# Method in brief: as §1
# [5] = target: Man(a1-2)Man(a1-6)[Man(a1-3)]Man(a1-6)[Man(a1-2)Man(a1-2)Man(a1-3)]Man
# Method in brief: as §1
# [6] = target: Man(a1-2)Man(a1-6)[Man(a1-3)]Man(a1-6)[Man(a1-2)Man(a1-2)Man(a1-3)]Man(b1-4)GlcNAc(b1-4)GlcNAc
# Method in brief: as §1
# Man(a1-3)[Man(a1-6)]Man = target: Man(a1-3)[Man(a1-6)]Man
# Method in brief: as §1
# [7] = target: Man(a1-3)[Man(a1-6)]Man(a1-6)[Man(a1-2)Man(a1-3)]Man(b1-4)GlcNAc(b1-4)GlcNAc
# Method in brief: as §1
# [8] = target: Man(a1-3)[Man(a1-6)]Man(a1-6)[Man(a1-3)]Man
# Method in brief: as §1
# [9] = target: Man(a1-3)[Man(a1-6)]Man(a1-6)[Man(a1-3)]Man(b1-4)GlcNAc(b1-4)GlcNAc
# Method in brief: as §1
# [10] = target: Man(a1-3)[Man(a1-6)]Man(b1-4)GlcNAc(b1-4)GlcNAc
# Method in brief: as §1
# [11] = target: Man(a1-3)[Man(a1-6)]Man(b1-4)GlcNAc(b1-4)[Fuc(a1-6)]GlcNAc
# Method in brief: as §1
# Man(a1-6)Man = target: Man(a1-6)Man
# Method in brief: as §1
# Man(b1-4)GlcNAc = target: Man(b1-4)GlcNAc
# Method in brief: as §1
# MurNAc(b1-4)GlcNAc = target: MurNAc(b1-4)GlcNAc
# Method in brief: as §1
# Neu5Ac(a2-3)Gal = target: Neu5Ac(a2-3)Gal
# Method in brief: as §1
# [12] = target: Neu5Ac(a2-3)Gal(b1-3)GalNAc
# Method in brief: as §1
# [13] = target: Neu5Ac(a2-3)Gal(b1-3)GalNAc(b1-3)Gal(a1-4)Gal(b1-4)Glc
# Method in brief: as §1
# [14] = target: Neu5Ac(a2-3)Gal(b1-3)GalNAc(b1-4)Gal(b1-4)Glc
# Method in brief: as §1
# [15] = target: Neu5Ac(a2-3)Gal(b1-3)GalNAc(b1-4)[Neu5Ac(a2-3)]Gal(b1-4)Glc
# Method in brief: as §1
# [16] = target: Neu5Ac(a2-3)Gal(b1-3)GalNAc(b1-4)[Neu5Ac(a2-8)Neu5Ac(a2-3)]Gal(b1-4)Glc
# Method in brief: as §1
# [17] = target: Neu5Ac(a2-3)Gal(b1-3)GalNAc6S
# Method in brief: as §1
# [18] = target: Neu5Ac(a2-3)Gal(b1-3)GlcNAc
# Method in brief: as §1
# [19] = target: Neu5Ac(a2-3)Gal(b1-3)GlcNAc(b1-2)Man
# Method in brief: as §1
# [20] = target: Neu5Ac(a2-3)Gal(b1-3)GlcNAc(b1-2)Man(a1-3)[GlcNAc(b1-4)][Neu5Ac(a2-3)Gal(b1-3)GlcNAc(b1-2)Man(a1-6)]Man(b1-4)GlcNAc(b1-4)GlcNAc
# Method in brief: as §1
# [21] = target: Neu5Ac(a2-3)Gal(b1-3)GlcNAc(b1-2)Man(a1-3)[Neu5Ac(a2-3)Gal(b1-3)GlcNAc(b1-2)Man(a1-6)]Man(b1-4)GlcNAc(b1-4)GlcNAc
# Method in brief: as §1
# [22] = target: Neu5Ac(a2-3)Gal(b1-3)GlcNAc(b1-2)[Neu5Ac(a2-3)Gal(b1-3)GlcNAc(b1-4)]Man(a1-6)[Neu5Ac(a2-3)Gal(b1-3)GlcNAc(b1-2)Man(a1-3)]Man(b1-4)GlcNAc(b1-4)GlcNAc
# Method in brief: as §1
# [23] = target: Neu5Ac(a2-3)Gal(b1-3)GlcNAc(b1-3)Gal(b1-3)GlcNAc
# Method in brief: as §1
# [24] = target: Neu5Ac(a2-3)Gal(b1-3)GlcNAc(b1-3)Gal(b1-4)GlcNAc
# Method in brief: as §1
# [25] = target: Neu5Ac(a2-3)Gal(b1-3)GlcNAc(b1-3)GalNAc
# Method in brief: as §1
binder,measurement,setting,value
B1,glycan array binding signal (z-score),[1],-0.028
same,glycan array binding signal (z-score),[2],0.333
same,glycan array binding signal (z-score),[3],-0.155
same,glycan array binding signal (z-score),[4],1.94
same,glycan array binding signal (z-score),[5],-0.769
same,glycan array binding signal (z-score),[6],-0.744
same,glycan array binding signal (z-score),Man(a1-3)[Man(a1-6)]Man,0.196
same,glycan array binding signal (z-score),[7],-0.673
same,glycan array binding signal (z-score),[8],-0.83
same,glycan array binding signal (z-score),[9],-0.419
same,glycan array binding signal (z-score),[10],-0.406
same,glycan array binding signal (z-score),[11],0.257
same,glycan array binding signal (z-score),Man(a1-6)Man,0.145
same,glycan array binding signal (z-score),Man(b1-4)GlcNAc,0.973
same,glycan array binding signal (z-score),MurNAc(b1-4)GlcNAc,0.501
same,glycan array binding signal (z-score),Neu5Ac(a2-3)Gal,0.526
same,glycan array binding signal (z-score),[12],0.265
same,glycan array binding signal (z-score),[13],0.465
same,glycan array binding signal (z-score),[14],-0.17
same,glycan array binding signal (z-score),[15],2.47
same,glycan array binding signal (z-score),[16],0.44
same,glycan array binding signal (z-score),[17],0.237
same,glycan array binding signal (z-score),[18],-0.465
same,glycan array binding signal (z-score),[19],-0.454
same,glycan array binding signal (z-score),[20],-0.526
same,glycan array binding signal (z-score),[21],-0.18
same,glycan array binding signal (z-score),[22],1.36
same,glycan array binding signal (z-score),[23],2.05
same,glycan array binding signal (z-score),[24],1.43
same,glycan array binding signal (z-score),[25],-0.536

# A different layout for part of the listing above:
binder	measurement	setting	value
B1	glycan array binding signal (z-score)	MurNAc(b1-4)GlcNAc	0.501
same	glycan array binding signal (z-score)	Neu5Ac(a2-3)Gal	0.526
same	glycan array binding signal (z-score)	[12]	0.265
same	glycan array binding signal (z-score)	[13]	0.465
same	glycan array binding signal (z-score)	[14]	-0.17
same	glycan array binding signal (z-score)	[15]	2.47
